The nature of this experiment: qHTS Assay for Lipid Storage Modulators in Drosophila S3 Cells.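 On cell number change: cells counted by Cell Tracker Red CMTPX staining in the red channel.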 Conditions: BODIPY lipid droplet fluorescence, 18-24 h; for cell number change: measured here: cell count max response, cells fed with added oleic acid. In a few lines: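 Drosophila S3 cells got compounds at several concentrations plus oleic acid (400 uM solution). Laser-scanning cytometry with 488 nm excitation read lipid droplets at 500-530 nm and cells at 575-640 nm. Percent activity was relative to 20 uM Triacsin C.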
(In general: Quantitative high-throughput screening tests each substance at several concentrations.)

[1] abbreviates: measured here: cell number channel AC50, cells fed with added oleic acid.
Where [2] appears, read: measured here: lipid fluorescence (Fed channel) AC50, cells fed with added oleic acid.

SMILES strings stand for the structures. The list shows a part of the results. These are further read-outs of the screen, such as a control signal, another cell line or another target. No call is given for them. The list favours compounds with an active or inconclusive main result. The note in brackets gives the kind of curve behind each potency; many fits are weak.

Our source for the cell number change and AC50 values is PubChem BioAssay AID2685 (National Center for Advancing Translational Sciences (NCATS), 2010).

Consider `Cn1c(N)c(C(=O)COC(=O)C2(c3cccc(F)c3)CCCC2)c(=O)n(C)c1=O`, for which the cell number change is -20.6%. The AC50 is the midpoint of the concentration-response curve, whichever way the signal moves. Read a low AC50 as greater potency. For `COc1nccnc1NS(=O)(=O)c1ccc(N=Cc2c(C)[nH]n(-c3ccc(C)c(C)c3)c2=O)cc1`, the cell number change amounted to 14.6%. The AC50 under setting [1] is 130 nM [falling, full curve, poor fit]. The half-maximal activity concentration (AC50) under setting [2] is 130 nM [falling, full curve].

Turning to `CCn1c(=O)cc(O)c2ccccc21`, the cell number change was -0.655%. On to `Nc1[nH]n(-c2ccccc2)c(=O)c1N=Nc1ccccc1[N+](=O)[O-]`, for which the cell number change came to 2.8%. Moreover, the AC50 under setting [2] was 164 nM [rising, full curve, poor fit]. Consider `COc1cccc(C2C(C(=O)Nc3ccccc3)=C(C)N=c3s/c(=C/c4ccc(OCC(=O)O)cc4)c(=O)n32)c1` (configuration not stated), for which the cell number change was found to be 59.5%. The AC50 under setting [1] was 29100 nM [rising, single point]. Consider `Cc1oc2c(c(=O)c1C)C(=O)CC(c1ccccc1)C2` (configuration not stated), for which the cell number change was 6.84%. Regarding `CC(C)CCOP(=O)(c1ccc(N(C)C)cc1)C(O)c1c(Cl)cccc1Cl` (configuration not stated), the cell number change turned out to be 11.7%. Besides, under setting [1], the AC50 was 461 nM [falling, single point]. In addition, the AC50 under setting [2] is 6510 nM [falling, single point].

Consider `CCN(C(=O)c1ccncc1)c1c(N)n(Cc2ccccc2)c(=O)[nH]c1=O`, for which the cell number change was -34.9%. The AC50 under setting [1] was 580 nM [falling, full curve]. For the same compound, the AC50 under setting [2] was 4610 nM [falling, single point]. With `Clc1ccc(-c2nn3cnnc3s2)c(Cl)c1`, the cell number change worked out at 5.62%.

Take `Cc1ccnc2nc(C(=O)N3CCN(S(=O)(=O)c4ccccc4)CC3)nn12`: the cell number change was -16.3%. Also, the half-maximal activity concentration (AC50) under setting [2] was 259 nM [rising, full curve]. For the compound `S=C(NCc1ccccc1)N1CCN(c2ccccc2)CC1`, the cell number change came out at 26.2%. In the case of `CCN(CC)Cc1cc(Nc2ccnc3cc(Cl)ccc23)ccc1O`, the cell number change was determined as 9.72%.

For the compound `COc1ccc(-c2ccccc2)cc1NCc1ccccc1C`, the cell number change was found to be 26.7%. Further, the half-maximal activity concentration (AC50) under setting [2] is 16400 nM [rising, partial curve]. For the compound `CCCC1=[N+](CC)CCn2c(C)ccc21`, the cell number change was -32.3%. Further, under setting [1], the AC50 is 20600 nM [falling, single point]. On to `COc1ccc(OC)c(C(=O)C2COC(=O)C2)c1` (configuration not stated), for which the cell number change was -12.8%. Also, the AC50 under setting [2] was 5800 nM [rising, partial curve].

As to `O=C(Nc1ccc(C(F)(F)F)cc1)C1=NN(C2CCS(=O)(=O)C2)C(=O)CC1` (configuration not stated), the cell number change was -23.3%. Take `O=C(NCCc1ccccn1)c1ccc(S(=O)(=O)N2CCCCCC2)cc1`: the cell number change is -24.2%. Also, the AC50 under setting [2] was 820 nM [rising, full curve, poor fit]. For the compound `COC(=O)c1cc(C(C)=O)n2ccccc12`, the AC50 is 65.1 nM [falling, full curve, poor fit] under setting [1] and 164 nM [falling, full curve, poor fit] under setting [2].
